Out of some 320,000 compounds screened, about 2,100 (0.66%) were called active. The shares of active, inactive and inconclusive entries below differ from those in the screen. Calls come from the whole dose curve; as a rule, active = well fitted inhibition curve with a large enough effect in the signal ratio, with a control signal flat (not every such curve was filed as active); inconclusive = small, poorly fitted or top-dose-only effect, or effect the other way, or a change in a side signal; inactive = flat fitted curve, though single readings scatter; the % refers to the signal ratio. Potencies of inconclusive entries are doubtful fits and often do not repeat.
Test: qHTS Assay for Lipid Storage Modulators in Drosophila S3 Cells
Details: BODIPY lipid droplet fluorescence, 18-24 h, cells fed with added oleic acid; lipid storage change, negative = inhibition: at 46.1 µM (top of the series) unless noted
Outline: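 Drosophila S3 cells loaded with oleic acid (400 uM, as added) and compounds at several concentrations; lipid droplets imaged by 488-nm laser-scanning cytometry, 500–530 nm intensity and object ratio to cell channel. Percent activity normalized to 20 uM Triacsin C.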
% is set by controls: 0 for no effect and ±100 for the full control effect; potency is the fitted concentration of half-maximal effect.

Row | Compound | lipid storage change, negative = inhibition | Potency
1 | CCOC(=O)C1CCN(c2c(NCCCN(CC)Cc3ccccc3)c(=O)c2=O)CC1 | inconclusive: 7.64% | –
2 | CC(C)Nc1nc(NC(C)C)nc(N(C#N)CCOc2ccc(Cl)cc2Cl)n1 | inconclusive: -22.6% | –
3 | Cc1ccc(N2C(=O)N3[C@H](c4ccc(F)cc4)[C@@H]4C(=O)N(C5CCCCC5)C(=O)[C@@H]4[C@]3(C)C2=O)cc1 | – | inconclusive: 29.1 µM [activator, single point]
4 | O=C(Cc1ccc(F)cc1)OCN1C(=O)c2ccccc2C1=O | – | inconclusive: 29.1 µM [falling, single point]
5 | Cc1cc(C)cc(C(=O)NC(CC(N)=O)c2ccc(N3CCC(Cc4ccccc4)CC3)c([N+](=O)[O-])c2)c1 (configuration not stated) | – | inconclusive: 10.3 µM [falling, single point]
6 | O=S1(=O)c2cccc3cccc(c23)N1Cc1nnc(-c2ccccc2Br)o1 | inconclusive: -1.45% | –
7 | COc1ccc(OC)c(-c2csc(N(C)C(=O)Cc3ccccc3)n2)c1 | inconclusive: -5.77% | –
8 | C/C(=N\NC(=S)NCCc1ccccc1)c1cccc(Br)c1 | inconclusive: -5.21% | –
9 | CCCCNc1nnc(SCC(=O)c2c[nH]c3ccccc23)s1 | inconclusive: -103% | –
10 | COc1ccc(OC)c(CCNC(=O)CS(=O)(=O)Cc2nc(-c3ccc(C)cc3)oc2C)c1 | inconclusive: 11.3% | –
11 | OCC[C@@H]1C[C@@H](O)[C@H](O)[C@@]2(Cc3ccccc3CCO2)O1 | inconclusive: 56% | –
12 | CCN(CC)S(=O)(=O)c1cc(C(=O)Nc2ccccn2)ccc1C | inconclusive: 100% | –
13 | Cc1c(NC(=O)c2cnn3c2NC(c2ccccc2)CC3C(F)(F)F)c(=O)n(-c2ccccc2)n1C (configuration not stated) | – | inconclusive: 3.66 µM [falling, full curve]
14 | O=C(CSc1ncccn1)Nn1cnnc1 | – | active: 7.31 µM
15 | Cn1c(-c2ccsc2)c(-c2cccs2)c2cc(Br)ccc21 | – | inconclusive: 1.16 µM [falling, partial curve, poor fit]
16 | O=C(COc1ccc(Cl)cc1)NCCSCc1cccc(Cl)c1 | – | inconclusive: 6.51 µM [activator, partial curve]
17 | CCC(C)Nc1nc2c(c(=O)[nH]c(=O)n2C)n1CCOc1ccccc1 (configuration not stated) | – | inconclusive: 6.51 µM [falling, partial curve, poor fit]
18 | CN(C)S(=O)(=O)N1CCN(S(=O)(=O)c2ccc3ccccc3c2)CC1 | inconclusive: -11.5% | –
19 | COc1ccc(OCCSc2nc(N)cc(N)n2)cc1 | inconclusive: 441% | –
20 | Cc1nn(C(C)(C)C)c(NC(=O)c2ccc(Cl)cc2)c1Br | inconclusive: 6.05% | –
21 | O=C(Cn1nnc(-c2ccc([N+](=O)[O-])cc2)n1)NNC(=O)c1ccccc1 | – | inconclusive: 0.651 µM [falling, single point]
22 | O=C(OCC#CCSc1nnc(-c2ccc(Br)cc2)o1)c1cccs1 | – | inconclusive: 8.2 µM [rising, partial curve]
23 | Cc1nnc(SCc2nc3ccccc3s2)n1-c1ccccc1 | inconclusive: 4.69% | –
24 | O=C(Nc1ccc(N2CCCC2)cc1)c1ccc2ccccc2c1 | inconclusive: 14.1% | –

Laid out differently: 9 of the compounds above.
Row	Compound	lipid storage change, negative = inhibition	Potency
15	Cn1c(-c2ccsc2)c(-c2cccs2)c2cc(Br)ccc21	–	inconclusive: 1.16 µM [falling, partial curve, poor fit]
16	O=C(COc1ccc(Cl)cc1)NCCSCc1cccc(Cl)c1	–	inconclusive: 6.51 µM [activator, partial curve]
17	CCC(C)Nc1nc2c(c(=O)[nH]c(=O)n2C)n1CCOc1ccccc1 (configuration not stated)	–	inconclusive: 6.51 µM [falling, partial curve, poor fit]
18	CN(C)S(=O)(=O)N1CCN(S(=O)(=O)c2ccc3ccccc3c2)CC1	inconclusive: -11.5%	–
19	COc1ccc(OCCSc2nc(N)cc(N)n2)cc1	inconclusive: 441%	–
20	Cc1nn(C(C)(C)C)c(NC(=O)c2ccc(Cl)cc2)c1Br	inconclusive: 6.05%	–
21	O=C(Cn1nnc(-c2ccc([N+](=O)[O-])cc2)n1)NNC(=O)c1ccccc1	–	inconclusive: 0.651 µM [falling, single point]
22	O=C(OCC#CCSc1nnc(-c2ccc(Br)cc2)o1)c1cccs1	–	inconclusive: 8.2 µM [rising, partial curve]
23	Cc1nnc(SCc2nc3ccccc3s2)n1-c1ccccc1	inconclusive: 4.69%	–

More compounds

Row | Compound | lipid storage change, negative = inhibition | Potency
25 | CCN1CCN(CNC(=O)c2cnccn2)CC1 | inconclusive: -79% | –
26 | CC(NC(=O)Nc1ccc([N+](=O)[O-])cc1)C(c1ccccc1)N1CCOCC1 (configuration not stated) | inconclusive: -4.02% | –
27 | Cc1c(-n2c(SCC(C)C)nc3ccccc3c2=O)c(=O)n(-c2ccccc2)n1C | inconclusive: -22.5% | –
28 | CC(C)n1c(N)c(C#N)c2ccc([N+](=O)[O-])cc2c1=O | inactive | –
29 | O=C(O)c1cc(N/C(=N\S(=O)(=O)c2ccc(F)cc2)c2ccccc2)ccc1O | inconclusive | –
30 | Cc1ccc(-c2[nH]nc3c2C(C)C(C#N)=C(N)O3)cc1 (configuration not stated) | inconclusive: 18.3% | –
31 | O=C(N/N=C/c1c(Nc2cccc(C(F)(F)F)c2)nc2ccccn2c1=O)c1ccccc1 | inconclusive: -2.14% | –
32 | CC(=O)c1cccc(NC(=O)c2onc(C)c2Cl)c1 | inconclusive: -1.14% | –
33 | COc1cccc(CN2CC(C(=O)NCc3cccc(N4CCCC4)c3)CCC2=O)c1 (configuration not stated) | inconclusive: -30.5% | –
34 | Cc1ccc(OC(=O)CCC(=O)NC(C)c2ccccc2)cc1 (configuration not stated) | inconclusive: 3.38% | –
35 | CCCN1CCN(C(=O)CCCNC(=O)c2ccc(Cl)cc2)CC1 | – | inconclusive: 29.1 µM [falling, single point]
36 | CC1CCCCC1NC(=O)c1ccc(S(=O)(=O)NCC2CCCO2)cc1 (configuration not stated) | inactive | –
37 | C#Cc1ccc(CN2CCC(Oc3cc(C(=O)NC4CC4)ccc3OC)CC2)cc1 | inconclusive: 15% | –
38 | COc1ccc(NC(=O)C2=CC(c3ccc(OC)cc3)=NS(=O)(=O)N2C)cc1 | – | inconclusive: 18.4 µM [falling, single point]
39 | Cc1ccc(C(=O)OCC(=O)Nc2ccc3c(c2)OCCO3)cc1C | – | inconclusive: 9.2 µM [activator, single point]
40 | Cc1cccc(N2C(=O)c3ccc(C(=O)Nc4c[nH]c(=O)[nH]c4=O)cc3C2=O)c1 | inactive | –
41 | CCCc1nc(NCCCOCC)c2nnn(Cc3ccccc3)c2n1 | – | inconclusive: 0.058 µM [activator, full curve, poor fit]
42 | C#CCOCCOCCOCCNc1nc(N2CCN(C(=O)[C@H](C(C)C)n3cc(CCO)nn3)CC2)nc(N2CCN(C(=O)[C@H](C(C)C)n3cc(CCO)nn3)CC2)n1 | inconclusive: 1.55% | –
43 | Cc1nc2scc(-c3ccc(C(C)(C)C)cc3)c2c(=O)n1N | inconclusive: -57.3% | –
44 | Cc1ccc(C(=O)N2CCN(C34CC5CC(CC(C5)C3)C4)CC2)o1 | – | inconclusive: 29.1 µM [activator, single point]
45 | CCOc1ccc(N2CC(C(=O)NCCCc3ccccc3)CC2=O)cc1 (configuration not stated) | inconclusive: 14% | –
46 | Cc1cccc(-c2nc(CS(=O)CC(=O)NCCc3ccccc3)c(C)o2)c1 (configuration not stated) | – | inconclusive: 29.1 µM [activator, partial curve]
47 | Cc1cc(C)c(C#N)c(SCC(=O)Nc2ccc(S(=O)(=O)Nc3onc(C)c3C)cc2)n1 | – | inconclusive: 14.6 µM [activator, single point]

From PubChem BioAssay AID2685 (National Center for Advancing Translational Sciences (NCATS), 2010)
